We go through one compound from patent US9925168B2, “Preparation of micronized particles of an antimuscarinic compound by hydrodynamic cavitation” (CHIESI FARMACEUTICI S.P.A., priority 2016, dated 2018).

Molecules are shown by their SMILES.

For data set [1] the following is noted: helium picnometry, mean of triplicate.
The conditions of data set [2]: UPLC-PDA, at the release and/or after 3 months.
The conditions of data set [3]: DVS, 10% r.h. to 90% r.h.

In the case of `C[N+]1(C)CCC(OC(=O)C(O)(c2ccccc2)C2CCCC2)C1.[Br-]` (racemic) [Example 1, (3S,2′R), (3R,2′S)-3-[(Cyclopentylhydroxyphenylacetyl)oxy]-1,1-dimethylpyrrolidinium bromide racemic mixture], the “density of the powder” value in data set [1] worked out at 1.3917 g/mL. Also, the “degradation/impurities peaks (chemical stability)” value in data set [2] was “No degradation/impurities peaks were detected”. Besides, the moisture uptake entry in data set [3] was “less than 2.5%”.
